Assay results as given in publication PMC10552901.

By UniProt entry, the sequences of proteins in these tests, tags left out.
UniProt O14745: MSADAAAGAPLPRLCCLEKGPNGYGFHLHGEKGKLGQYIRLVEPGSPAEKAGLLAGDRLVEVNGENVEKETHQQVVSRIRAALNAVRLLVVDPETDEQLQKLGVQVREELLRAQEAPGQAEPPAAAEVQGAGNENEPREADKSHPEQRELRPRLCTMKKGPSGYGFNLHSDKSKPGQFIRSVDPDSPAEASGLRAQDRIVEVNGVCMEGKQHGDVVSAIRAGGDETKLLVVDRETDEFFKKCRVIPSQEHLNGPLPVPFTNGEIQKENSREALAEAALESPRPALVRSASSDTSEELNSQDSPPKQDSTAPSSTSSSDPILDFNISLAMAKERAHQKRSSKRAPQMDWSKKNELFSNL
UniProt P35579: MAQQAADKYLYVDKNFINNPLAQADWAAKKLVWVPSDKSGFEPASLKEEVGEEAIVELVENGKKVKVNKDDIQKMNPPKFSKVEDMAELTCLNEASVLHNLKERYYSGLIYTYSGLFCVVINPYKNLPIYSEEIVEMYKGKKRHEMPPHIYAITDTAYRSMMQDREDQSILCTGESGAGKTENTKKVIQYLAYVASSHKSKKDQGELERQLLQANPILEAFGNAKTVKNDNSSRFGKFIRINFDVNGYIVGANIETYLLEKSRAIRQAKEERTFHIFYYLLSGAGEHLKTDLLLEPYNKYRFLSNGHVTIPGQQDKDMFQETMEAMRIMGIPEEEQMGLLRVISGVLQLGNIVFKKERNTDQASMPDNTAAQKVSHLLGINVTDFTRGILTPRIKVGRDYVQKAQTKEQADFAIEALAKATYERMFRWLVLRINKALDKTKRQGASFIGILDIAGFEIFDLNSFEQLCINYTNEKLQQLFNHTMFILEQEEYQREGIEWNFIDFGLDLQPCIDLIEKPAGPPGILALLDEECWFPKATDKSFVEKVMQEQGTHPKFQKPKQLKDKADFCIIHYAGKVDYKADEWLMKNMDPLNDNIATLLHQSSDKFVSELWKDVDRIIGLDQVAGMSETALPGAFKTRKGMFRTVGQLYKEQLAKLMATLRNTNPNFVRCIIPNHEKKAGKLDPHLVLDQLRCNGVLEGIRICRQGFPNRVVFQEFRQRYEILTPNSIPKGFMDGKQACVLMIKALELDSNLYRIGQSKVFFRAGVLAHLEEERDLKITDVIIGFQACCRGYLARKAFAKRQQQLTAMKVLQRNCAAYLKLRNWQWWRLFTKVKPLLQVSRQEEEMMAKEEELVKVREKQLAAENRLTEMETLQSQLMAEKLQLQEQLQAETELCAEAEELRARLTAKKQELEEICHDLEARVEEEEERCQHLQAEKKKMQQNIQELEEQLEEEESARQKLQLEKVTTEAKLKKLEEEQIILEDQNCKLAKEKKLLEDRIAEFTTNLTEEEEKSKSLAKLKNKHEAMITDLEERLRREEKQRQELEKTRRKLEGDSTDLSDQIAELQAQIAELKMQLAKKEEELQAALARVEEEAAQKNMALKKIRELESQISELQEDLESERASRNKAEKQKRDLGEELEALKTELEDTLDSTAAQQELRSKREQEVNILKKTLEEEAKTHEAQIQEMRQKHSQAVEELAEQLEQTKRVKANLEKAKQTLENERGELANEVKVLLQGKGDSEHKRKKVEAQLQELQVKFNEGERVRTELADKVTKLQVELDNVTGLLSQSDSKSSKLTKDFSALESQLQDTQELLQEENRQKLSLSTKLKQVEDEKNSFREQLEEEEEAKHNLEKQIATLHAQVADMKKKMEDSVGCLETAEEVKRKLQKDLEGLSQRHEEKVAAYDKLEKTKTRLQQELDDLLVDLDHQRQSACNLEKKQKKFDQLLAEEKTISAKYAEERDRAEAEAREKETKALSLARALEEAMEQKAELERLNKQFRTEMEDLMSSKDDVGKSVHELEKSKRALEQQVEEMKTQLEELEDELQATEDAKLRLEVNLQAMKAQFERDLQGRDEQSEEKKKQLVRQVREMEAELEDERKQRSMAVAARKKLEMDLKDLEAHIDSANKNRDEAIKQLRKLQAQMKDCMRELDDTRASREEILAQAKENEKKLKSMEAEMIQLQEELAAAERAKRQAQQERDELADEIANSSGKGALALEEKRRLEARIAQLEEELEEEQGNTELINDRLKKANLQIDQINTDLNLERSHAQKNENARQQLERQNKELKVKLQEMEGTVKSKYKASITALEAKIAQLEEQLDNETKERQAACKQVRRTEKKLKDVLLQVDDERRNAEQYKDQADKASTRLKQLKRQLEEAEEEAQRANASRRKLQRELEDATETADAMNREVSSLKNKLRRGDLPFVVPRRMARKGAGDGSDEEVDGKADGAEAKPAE

Molecular target: Ezrin‐radixin‐moesin‐binding phosphoprotein 50 (EBP50) (human (endogenous in OVISE cells and OCCC tissue)) (UniProt O14745)
Assay: affinity purification with mass spectrometry; co-immunoprecipitation with anti-EBP50 antibody crosslinked to Protein G Dynabeads from OVISE cell lysate (IP buffer: 10 mM Tris-HCl pH 7.5, 100 mM NaCl, 1% Nonidet P-40), shotgun proteomics with spectral counting

binding: binds
Substance: myosin 9 (MYH9) (from UniProt P35579 1-1960)

Results are given in words; binding and its absence hold for the method and conditions named. In cells and extracts the contact can be indirect. A yes stands for co-enrichment or nearness to the bait. Other partners may have been found.
